No constants are given. Whether binding was seen depends on the method and setting. For some assays here: In cells and extracts the contact can be indirect. Some entries that bind do so weakly or less than the wild type. Tags and fused reporters may be left off the sequences shown. Each block holds one binder with its values, some of them ahead of it.
What was measured:
Spn3-GFP (S. pombe) = target: T1, Spn3-GFP (S. pombe) (UniProt P48008); experiment: GFP-GBP trap
T1 sequence: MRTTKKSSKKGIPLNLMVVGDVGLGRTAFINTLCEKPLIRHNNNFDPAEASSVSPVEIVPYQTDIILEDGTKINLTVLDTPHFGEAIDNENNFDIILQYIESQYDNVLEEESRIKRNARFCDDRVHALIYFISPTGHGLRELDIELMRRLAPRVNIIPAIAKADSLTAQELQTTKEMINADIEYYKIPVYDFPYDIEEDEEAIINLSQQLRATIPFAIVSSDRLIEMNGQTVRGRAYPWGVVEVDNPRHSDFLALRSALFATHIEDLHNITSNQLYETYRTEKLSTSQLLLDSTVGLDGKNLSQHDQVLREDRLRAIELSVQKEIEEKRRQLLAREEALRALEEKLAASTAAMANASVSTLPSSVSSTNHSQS

Rga4-GFP (S. pombe) = target: T2, Rga4-GFP (S. pombe) (UniProt O74360); experiment: GFP-GBP trap
T2 sequence: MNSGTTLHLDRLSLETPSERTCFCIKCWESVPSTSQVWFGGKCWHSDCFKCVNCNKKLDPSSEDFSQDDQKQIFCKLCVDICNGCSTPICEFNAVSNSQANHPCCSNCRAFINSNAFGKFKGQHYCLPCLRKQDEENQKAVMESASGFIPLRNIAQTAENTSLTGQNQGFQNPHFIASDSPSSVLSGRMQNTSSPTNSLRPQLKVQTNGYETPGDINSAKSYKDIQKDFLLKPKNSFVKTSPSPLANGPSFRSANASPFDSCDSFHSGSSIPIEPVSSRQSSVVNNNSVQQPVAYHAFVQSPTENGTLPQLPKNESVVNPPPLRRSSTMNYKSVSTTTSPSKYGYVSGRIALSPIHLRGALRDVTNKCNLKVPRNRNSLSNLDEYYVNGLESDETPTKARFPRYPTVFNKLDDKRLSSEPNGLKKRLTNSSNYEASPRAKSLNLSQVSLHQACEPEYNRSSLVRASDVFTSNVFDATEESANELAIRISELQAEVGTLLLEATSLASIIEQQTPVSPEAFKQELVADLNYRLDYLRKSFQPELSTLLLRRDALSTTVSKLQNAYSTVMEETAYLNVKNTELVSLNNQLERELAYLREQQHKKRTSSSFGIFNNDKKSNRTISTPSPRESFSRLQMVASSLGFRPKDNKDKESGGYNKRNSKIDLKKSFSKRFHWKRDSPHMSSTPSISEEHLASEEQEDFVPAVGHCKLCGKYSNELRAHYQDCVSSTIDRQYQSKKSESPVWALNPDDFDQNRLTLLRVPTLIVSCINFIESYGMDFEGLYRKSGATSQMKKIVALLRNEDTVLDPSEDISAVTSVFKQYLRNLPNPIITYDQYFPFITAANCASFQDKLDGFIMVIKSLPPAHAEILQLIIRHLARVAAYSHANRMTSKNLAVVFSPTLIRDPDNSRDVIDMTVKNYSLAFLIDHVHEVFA

Spn1-tagRFP (S. pombe) = target: T3, Spn1-tagRFP (S. pombe) (UniProt O36023); experiment: FRET or BRET
T3 sequence: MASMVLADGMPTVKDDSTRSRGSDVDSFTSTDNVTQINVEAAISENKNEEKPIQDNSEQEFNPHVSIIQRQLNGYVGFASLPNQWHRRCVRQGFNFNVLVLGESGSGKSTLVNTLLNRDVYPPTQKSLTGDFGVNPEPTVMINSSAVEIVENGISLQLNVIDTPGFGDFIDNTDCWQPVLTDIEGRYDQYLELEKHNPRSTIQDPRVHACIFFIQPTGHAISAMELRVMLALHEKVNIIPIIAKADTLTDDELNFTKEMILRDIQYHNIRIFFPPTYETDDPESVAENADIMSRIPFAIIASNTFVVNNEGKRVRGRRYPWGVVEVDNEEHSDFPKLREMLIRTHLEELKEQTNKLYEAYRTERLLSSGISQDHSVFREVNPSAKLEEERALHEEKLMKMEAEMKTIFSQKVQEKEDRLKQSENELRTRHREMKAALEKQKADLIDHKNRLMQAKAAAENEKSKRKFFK

B1: Spn1-tdTomato (protein, UniProt O36023 1-469)
chain: T3 sequence
- binding (Spn3-GFP (S. pombe)): binds
- binding (Rga4-GFP (S. pombe)): no binding

B3: Rga4-mCherry (protein, UniProt O74360 1-933)
chain: T2 sequence
- binding (Spn3-GFP (S. pombe)): no binding

The next lines start with the values.

- binding (Spn1-tagRFP (S. pombe)): no binding
B2: Rga4-GFP (protein, UniProt O74360 1-933)
chain: T2 sequence

- binding (Spn1-tagRFP (S. pombe)): binds
B4: Spn3-GFP (protein, UniProt P48008 1-373)
chain: T1 sequence
